Paper PMC8119952
Results are given in words; binding and its absence hold for the method and conditions named. In cells and extracts the contact can be indirect. Some binding calls cover weakened binding; strength is not graded here.

The chains behind the UniProt entries cited, without tags or fusion partners.
UniProt P46527: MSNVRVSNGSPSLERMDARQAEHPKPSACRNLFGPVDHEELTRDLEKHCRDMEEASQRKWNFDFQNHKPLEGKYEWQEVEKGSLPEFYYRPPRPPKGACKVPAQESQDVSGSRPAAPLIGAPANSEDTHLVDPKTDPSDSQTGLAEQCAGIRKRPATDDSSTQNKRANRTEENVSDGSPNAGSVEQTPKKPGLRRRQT
UniProt Q5SQI0: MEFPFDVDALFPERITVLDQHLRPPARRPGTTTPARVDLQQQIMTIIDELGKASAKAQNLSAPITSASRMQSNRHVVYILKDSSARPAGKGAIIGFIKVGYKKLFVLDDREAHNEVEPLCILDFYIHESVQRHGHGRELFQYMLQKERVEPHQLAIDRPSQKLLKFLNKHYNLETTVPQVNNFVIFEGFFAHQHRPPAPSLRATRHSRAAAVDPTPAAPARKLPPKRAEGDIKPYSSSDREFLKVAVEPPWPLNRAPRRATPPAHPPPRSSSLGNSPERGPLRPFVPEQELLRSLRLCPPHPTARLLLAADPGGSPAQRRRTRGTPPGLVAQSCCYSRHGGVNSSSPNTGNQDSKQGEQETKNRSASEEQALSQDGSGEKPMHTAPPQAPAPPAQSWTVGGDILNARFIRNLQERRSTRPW

Target: p27^Kip1 (UniProt P46527)
Assay: co-IP; HEK 293 cells transfected with p27 and/or ATAT1-GFP for 24 h; lysis in IP buffer (150 mM NaCl, 50 mM HEPES pH 7.5, 1% NP-40, 1 mM EDTA, 2.5 mM EGTA, 0.1% Tween20, 10% glycerol); p27 immunoprecipitated from 500 µg of protein with 3 µg antibody on protein-A sepharose; bound ATAT1 detected with anti-GFP antibodies

- binding: binds
Substance: α-tubulin acetyltransferase (ATAT1) fused to GFP (from UniProt Q5SQI0 1-421) (enzyme)
